Test results reported in the supplement of paper PMC6411743.
± gives the standard deviation of the averaged measurements. The list shows a part of the results.

Chains of the proteins cited; added tags and fusions are not shown. Lines headed by an entry give the natural chain unless they say otherwise; changes in a name come on top.
UniProt Q53QZ3: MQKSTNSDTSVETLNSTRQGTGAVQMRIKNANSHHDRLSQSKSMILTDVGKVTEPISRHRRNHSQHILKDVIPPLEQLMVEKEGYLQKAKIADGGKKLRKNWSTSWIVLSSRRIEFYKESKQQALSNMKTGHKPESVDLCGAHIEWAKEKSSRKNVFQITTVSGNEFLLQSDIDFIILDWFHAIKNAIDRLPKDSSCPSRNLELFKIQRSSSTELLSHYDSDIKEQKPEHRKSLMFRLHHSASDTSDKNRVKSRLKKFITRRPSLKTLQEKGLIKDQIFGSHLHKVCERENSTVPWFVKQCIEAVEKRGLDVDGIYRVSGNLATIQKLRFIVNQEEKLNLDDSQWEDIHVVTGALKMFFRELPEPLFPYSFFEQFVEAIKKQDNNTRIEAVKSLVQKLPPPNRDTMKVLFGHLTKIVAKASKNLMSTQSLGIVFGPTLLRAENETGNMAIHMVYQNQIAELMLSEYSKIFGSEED
UniProt Q15126: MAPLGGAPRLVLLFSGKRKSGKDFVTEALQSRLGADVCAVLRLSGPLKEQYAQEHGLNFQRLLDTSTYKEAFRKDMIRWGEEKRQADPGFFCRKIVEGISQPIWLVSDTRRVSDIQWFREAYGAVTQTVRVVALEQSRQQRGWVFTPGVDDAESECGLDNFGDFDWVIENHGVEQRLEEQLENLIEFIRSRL
UniProt Q15121, whole entry: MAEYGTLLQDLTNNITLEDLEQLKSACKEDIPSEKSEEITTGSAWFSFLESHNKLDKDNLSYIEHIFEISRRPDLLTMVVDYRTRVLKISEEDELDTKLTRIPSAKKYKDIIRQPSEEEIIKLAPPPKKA
UniProt Q15014, whole entry: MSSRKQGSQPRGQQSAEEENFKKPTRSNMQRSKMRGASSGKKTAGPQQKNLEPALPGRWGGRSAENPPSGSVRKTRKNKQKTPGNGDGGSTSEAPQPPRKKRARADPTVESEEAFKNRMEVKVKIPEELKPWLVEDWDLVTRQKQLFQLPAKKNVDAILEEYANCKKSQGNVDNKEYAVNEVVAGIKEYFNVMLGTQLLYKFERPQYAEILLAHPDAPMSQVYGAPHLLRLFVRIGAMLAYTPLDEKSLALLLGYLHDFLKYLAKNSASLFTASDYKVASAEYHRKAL
UniProt Q56VL3: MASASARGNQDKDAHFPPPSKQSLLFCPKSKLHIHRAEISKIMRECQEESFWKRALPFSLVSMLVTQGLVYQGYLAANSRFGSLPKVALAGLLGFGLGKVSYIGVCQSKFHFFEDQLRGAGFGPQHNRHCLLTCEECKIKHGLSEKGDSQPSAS
UniProt Q5SRE5: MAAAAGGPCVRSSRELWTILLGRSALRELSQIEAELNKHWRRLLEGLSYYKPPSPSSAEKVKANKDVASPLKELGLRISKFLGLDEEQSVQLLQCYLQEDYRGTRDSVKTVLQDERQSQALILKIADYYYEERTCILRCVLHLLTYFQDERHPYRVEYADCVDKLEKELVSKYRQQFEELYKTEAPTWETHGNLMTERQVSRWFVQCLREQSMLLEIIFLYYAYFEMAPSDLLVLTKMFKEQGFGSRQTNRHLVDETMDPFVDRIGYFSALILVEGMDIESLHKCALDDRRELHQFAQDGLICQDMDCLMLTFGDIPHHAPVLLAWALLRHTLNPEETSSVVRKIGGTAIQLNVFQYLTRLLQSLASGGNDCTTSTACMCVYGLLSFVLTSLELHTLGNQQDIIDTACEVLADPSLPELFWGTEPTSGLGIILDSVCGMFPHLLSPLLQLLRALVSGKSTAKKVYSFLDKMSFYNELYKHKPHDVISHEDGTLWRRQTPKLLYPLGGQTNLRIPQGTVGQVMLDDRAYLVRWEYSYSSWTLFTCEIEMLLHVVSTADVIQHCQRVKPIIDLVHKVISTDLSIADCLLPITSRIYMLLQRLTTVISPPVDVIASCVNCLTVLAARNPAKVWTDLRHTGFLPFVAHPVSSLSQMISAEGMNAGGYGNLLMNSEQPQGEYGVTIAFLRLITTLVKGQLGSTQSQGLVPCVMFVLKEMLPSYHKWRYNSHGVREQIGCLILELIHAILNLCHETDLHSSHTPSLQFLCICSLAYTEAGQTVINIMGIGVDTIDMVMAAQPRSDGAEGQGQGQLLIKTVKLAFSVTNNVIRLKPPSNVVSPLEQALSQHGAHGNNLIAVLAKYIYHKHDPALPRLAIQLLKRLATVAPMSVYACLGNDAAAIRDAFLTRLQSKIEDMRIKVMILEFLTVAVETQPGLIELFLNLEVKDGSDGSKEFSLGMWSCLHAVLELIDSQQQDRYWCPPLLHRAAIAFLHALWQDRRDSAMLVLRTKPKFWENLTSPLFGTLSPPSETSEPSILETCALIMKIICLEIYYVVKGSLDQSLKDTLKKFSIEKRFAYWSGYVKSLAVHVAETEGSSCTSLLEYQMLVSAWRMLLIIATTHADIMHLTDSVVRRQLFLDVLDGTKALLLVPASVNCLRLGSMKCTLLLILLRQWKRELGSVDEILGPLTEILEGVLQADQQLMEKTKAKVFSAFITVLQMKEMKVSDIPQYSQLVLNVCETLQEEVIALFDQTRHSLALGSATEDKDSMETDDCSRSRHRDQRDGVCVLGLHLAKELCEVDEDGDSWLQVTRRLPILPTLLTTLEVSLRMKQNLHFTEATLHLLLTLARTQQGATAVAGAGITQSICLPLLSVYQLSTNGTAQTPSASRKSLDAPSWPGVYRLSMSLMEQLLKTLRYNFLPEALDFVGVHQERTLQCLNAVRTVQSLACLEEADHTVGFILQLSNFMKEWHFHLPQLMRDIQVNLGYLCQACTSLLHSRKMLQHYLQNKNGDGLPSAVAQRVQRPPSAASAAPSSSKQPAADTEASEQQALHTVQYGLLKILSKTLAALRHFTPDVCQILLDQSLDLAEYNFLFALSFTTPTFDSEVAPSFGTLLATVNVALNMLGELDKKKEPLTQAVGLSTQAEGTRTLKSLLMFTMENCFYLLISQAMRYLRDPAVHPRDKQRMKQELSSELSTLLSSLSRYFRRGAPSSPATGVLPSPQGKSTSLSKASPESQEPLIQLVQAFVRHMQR
UniProt Q15054: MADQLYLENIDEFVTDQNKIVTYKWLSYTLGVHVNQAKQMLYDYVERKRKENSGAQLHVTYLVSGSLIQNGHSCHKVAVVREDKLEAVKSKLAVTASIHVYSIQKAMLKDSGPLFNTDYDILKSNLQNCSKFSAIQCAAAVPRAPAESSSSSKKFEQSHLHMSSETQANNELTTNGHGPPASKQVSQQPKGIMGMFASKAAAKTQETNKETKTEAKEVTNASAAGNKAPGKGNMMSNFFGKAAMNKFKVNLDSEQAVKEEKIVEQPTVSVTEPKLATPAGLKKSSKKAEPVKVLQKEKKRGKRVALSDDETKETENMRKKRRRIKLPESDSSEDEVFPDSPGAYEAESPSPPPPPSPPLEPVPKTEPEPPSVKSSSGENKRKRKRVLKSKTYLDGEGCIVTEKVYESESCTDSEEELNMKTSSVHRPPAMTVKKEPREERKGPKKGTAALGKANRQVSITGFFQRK
UniProt Q14692: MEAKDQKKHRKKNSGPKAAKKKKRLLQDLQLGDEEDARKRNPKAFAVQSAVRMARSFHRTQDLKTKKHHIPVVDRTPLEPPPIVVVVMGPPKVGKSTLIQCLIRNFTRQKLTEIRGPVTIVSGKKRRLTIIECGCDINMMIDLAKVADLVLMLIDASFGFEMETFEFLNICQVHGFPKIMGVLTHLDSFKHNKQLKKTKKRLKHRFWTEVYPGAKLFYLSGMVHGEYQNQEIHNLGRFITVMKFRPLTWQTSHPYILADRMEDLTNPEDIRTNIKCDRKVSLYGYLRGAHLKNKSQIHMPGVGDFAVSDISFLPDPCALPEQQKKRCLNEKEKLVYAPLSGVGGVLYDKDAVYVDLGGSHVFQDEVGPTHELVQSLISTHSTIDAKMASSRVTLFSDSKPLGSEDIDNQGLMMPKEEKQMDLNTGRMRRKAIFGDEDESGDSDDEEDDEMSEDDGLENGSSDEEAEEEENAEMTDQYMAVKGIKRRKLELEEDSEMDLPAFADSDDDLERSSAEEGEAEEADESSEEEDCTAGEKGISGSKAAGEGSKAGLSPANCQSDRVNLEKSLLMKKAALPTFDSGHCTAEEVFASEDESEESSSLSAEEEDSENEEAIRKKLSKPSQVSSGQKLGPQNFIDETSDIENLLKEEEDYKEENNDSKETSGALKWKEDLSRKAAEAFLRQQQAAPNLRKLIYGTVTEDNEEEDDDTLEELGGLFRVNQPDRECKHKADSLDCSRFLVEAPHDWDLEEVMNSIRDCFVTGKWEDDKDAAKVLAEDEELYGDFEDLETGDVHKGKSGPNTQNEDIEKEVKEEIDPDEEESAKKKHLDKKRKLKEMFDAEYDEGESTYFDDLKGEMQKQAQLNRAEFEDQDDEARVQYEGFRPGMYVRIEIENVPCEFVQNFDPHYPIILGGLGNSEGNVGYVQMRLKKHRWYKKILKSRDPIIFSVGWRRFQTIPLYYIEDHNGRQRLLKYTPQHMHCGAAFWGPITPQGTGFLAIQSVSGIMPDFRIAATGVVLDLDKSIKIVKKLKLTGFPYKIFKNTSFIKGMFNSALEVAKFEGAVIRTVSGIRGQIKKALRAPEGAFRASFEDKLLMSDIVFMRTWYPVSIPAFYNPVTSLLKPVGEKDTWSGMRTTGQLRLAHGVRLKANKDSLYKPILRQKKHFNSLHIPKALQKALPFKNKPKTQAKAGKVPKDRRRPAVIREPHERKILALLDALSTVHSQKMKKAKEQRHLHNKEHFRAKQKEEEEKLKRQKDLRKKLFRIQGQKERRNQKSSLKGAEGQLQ
UniProt Q32P41: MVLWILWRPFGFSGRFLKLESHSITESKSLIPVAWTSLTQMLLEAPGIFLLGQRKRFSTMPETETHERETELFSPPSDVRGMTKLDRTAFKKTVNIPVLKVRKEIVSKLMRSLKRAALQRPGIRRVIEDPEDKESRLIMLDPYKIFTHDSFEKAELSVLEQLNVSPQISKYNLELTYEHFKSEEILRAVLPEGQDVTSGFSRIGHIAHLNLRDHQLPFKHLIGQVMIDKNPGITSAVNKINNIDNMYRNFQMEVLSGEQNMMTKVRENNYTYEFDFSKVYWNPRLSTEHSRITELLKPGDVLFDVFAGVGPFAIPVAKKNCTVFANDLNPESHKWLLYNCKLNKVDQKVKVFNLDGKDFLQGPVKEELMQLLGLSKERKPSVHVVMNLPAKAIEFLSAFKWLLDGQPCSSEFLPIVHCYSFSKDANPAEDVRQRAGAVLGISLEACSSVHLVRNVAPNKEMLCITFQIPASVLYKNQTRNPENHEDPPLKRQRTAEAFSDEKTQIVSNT
UniProt Q5SQI0: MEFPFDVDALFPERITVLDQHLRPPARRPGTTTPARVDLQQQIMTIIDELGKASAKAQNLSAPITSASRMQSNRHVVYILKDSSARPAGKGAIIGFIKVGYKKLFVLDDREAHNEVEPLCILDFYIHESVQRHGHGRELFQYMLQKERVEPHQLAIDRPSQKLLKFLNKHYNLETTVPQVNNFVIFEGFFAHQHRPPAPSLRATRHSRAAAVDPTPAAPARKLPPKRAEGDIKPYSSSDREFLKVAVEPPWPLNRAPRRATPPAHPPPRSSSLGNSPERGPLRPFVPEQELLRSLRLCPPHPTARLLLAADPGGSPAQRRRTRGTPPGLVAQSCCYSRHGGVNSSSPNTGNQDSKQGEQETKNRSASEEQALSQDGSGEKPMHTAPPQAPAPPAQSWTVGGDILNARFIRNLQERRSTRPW
UniProt Q4G0N4: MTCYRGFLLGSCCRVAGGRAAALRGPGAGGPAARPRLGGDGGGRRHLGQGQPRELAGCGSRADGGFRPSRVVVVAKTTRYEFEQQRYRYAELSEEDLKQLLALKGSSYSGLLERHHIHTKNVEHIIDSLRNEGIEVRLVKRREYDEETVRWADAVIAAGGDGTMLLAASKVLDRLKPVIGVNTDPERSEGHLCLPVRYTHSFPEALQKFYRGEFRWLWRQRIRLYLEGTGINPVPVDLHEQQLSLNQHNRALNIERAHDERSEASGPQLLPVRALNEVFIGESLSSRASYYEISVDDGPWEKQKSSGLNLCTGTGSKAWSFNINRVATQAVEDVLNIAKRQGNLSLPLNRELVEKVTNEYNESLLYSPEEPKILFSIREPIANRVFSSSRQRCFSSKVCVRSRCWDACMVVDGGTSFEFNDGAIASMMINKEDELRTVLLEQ

Compound: Nc1nc2c(ncn2[C@@H]2O[C@H](COP(=O)(O)OP(=O)(O)OP(=O)(O)O)[C@@H](O)[C@H]2O)c(=O)[nH]1 [guanosine triphosphate]
Experiment: NP40-soluble protein abundance relative to vehicle (solubility fold change) (ratio); higher = more soluble protein in presence of GTP
Procedure, shortened: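 In three independent experiments, Jurkat crude lysate made by Dounce homogenisation was treated for 10 min at room temperature and then 3 min at 37 °C with eight concentrations ranging from 0.1 to 10 mM. It was then solubilised with 0.8% NP40 plus benzonase for 60 min at 4 °C and ultracentrifuged. The supernatant was TMT-labelled for LC-MS/MS, and each value is the fold change against the detergent-processed vehicle for the same replicate, using vsn-normalised intensities.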

With ARHGAP15 (UniProt Q53QZ3) the NP40-soluble protein abundance (concentration: 0.1mM) was 1 ± 0.052, the NP40-soluble protein abundance (concentration: 0.5mM) was 1.01 ± 0.079 and the NP40-soluble protein abundance (concentration: 1mM) was 0.97 ± 0.037. The NP40-soluble protein abundance (concentration: 2mM) was 0.964 ± 0.029, the NP40-soluble protein abundance (concentration: 4mM) was 0.983 ± 0.018 and the NP40-soluble protein abundance (concentration: 6mM) was 0.955 ± 0.034. It also gave an NP40-soluble protein abundance (concentration: 8mM) of 0.956 ± 0.062 and an NP40-soluble protein abundance (concentration: 10mM) of 0.952 ± 0.027.
PMVK (UniProt Q15126) gave an NP40-soluble protein abundance (concentration: 0.1mM) of 0.969 ± 0.043, an NP40-soluble protein abundance (concentration: 0.5mM) of 0.919 ± 0.022 and an NP40-soluble protein abundance (concentration: 1mM) of 0.921 ± 0.047. The NP40-soluble protein abundance (concentration: 2mM) was 0.89 ± 0.0092, the NP40-soluble protein abundance (concentration: 4mM) was 0.893 ± 0.053 and the NP40-soluble protein abundance (concentration: 6mM) was 0.885 ± 0.036. For the same target, the NP40-soluble protein abundance (concentration: 8mM) was 0.85 ± 0.07 and the NP40-soluble protein abundance (concentration: 10mM) was 0.846 ± 0.061.
In the case of UniProt Q15121 and related entries, the NP40-soluble protein abundance (concentration: 0.1mM) is reported as 0.969 ± 0.25, the NP40-soluble protein abundance (concentration: 0.5mM) is reported as 0.983 ± 0.1 and the NP40-soluble protein abundance (concentration: 1mM) is reported as 1.06 ± 0.2. The NP40-soluble protein abundance (concentration: 2mM) was 0.946 ± 0.14, the NP40-soluble protein abundance (concentration: 4mM) was 0.924 ± 0.034 and the NP40-soluble protein abundance (concentration: 6mM) was 1.03 ± 0.21. For the same target, the NP40-soluble protein abundance (concentration: 8mM) was 1 ± 0.13 and the NP40-soluble protein abundance (concentration: 10mM) was 1.07 ± 0.024.
Work on MORF4L2 (UniProt Q15014) yielded an NP40-soluble protein abundance (concentration: 0.1mM) of 0.987 ± 0.068, an NP40-soluble protein abundance (concentration: 0.5mM) of 0.935 ± 0.12 and an NP40-soluble protein abundance (concentration: 1mM) of 1.12 ± 0.053. The NP40-soluble protein abundance (concentration: 2mM) was 1.1 ± 0.11, the NP40-soluble protein abundance (concentration: 4mM) was 1.15 ± 0.093 and the NP40-soluble protein abundance (concentration: 6mM) was 1.09 ± 0.12. For the same target, the NP40-soluble protein abundance (concentration: 8mM) was 1.16 ± 0.078 and the NP40-soluble protein abundance (concentration: 10mM) was 1.17 ± 0.062.
For OCIAD2 (UniProt Q56VL3), the NP40-soluble protein abundance (concentration: 0.1mM) was 0.943 ± 0.036, the NP40-soluble protein abundance (concentration: 0.5mM) was 0.872 ± 0.017 and the NP40-soluble protein abundance (concentration: 1mM) was 0.935 ± 0.026. The NP40-soluble protein abundance (concentration: 2mM) was 0.932 ± 0.012, the NP40-soluble protein abundance (concentration: 4mM) was 0.972 ± 0.014 and the NP40-soluble protein abundance (concentration: 6mM) was 0.862 ± 0.045. For the same target, the NP40-soluble protein abundance (concentration: 8mM) was 0.868 ± 0.1 and the NP40-soluble protein abundance (concentration: 10mM) was 0.894 ± 0.061.
UniProt Q15788 and related entries showed an NP40-soluble protein abundance (concentration: 0.1mM) of 1.03 ± 0.063, an NP40-soluble protein abundance (concentration: 0.5mM) of 0.979 ± 0.03 and an NP40-soluble protein abundance (concentration: 1mM) of 0.976 ± 0.083. The NP40-soluble protein abundance (concentration: 2mM) was 0.928 ± 0.077, the NP40-soluble protein abundance (concentration: 4mM) was 0.973 ± 0.04 and the NP40-soluble protein abundance (concentration: 6mM) was 0.985 ± 0.052. The NP40-soluble protein abundance (concentration: 8mM) was 0.988 ± 0.055 and the NP40-soluble protein abundance (concentration: 10mM) was 0.96 ± 0.084.
With PDCD11 (UniProt Q14690) the NP40-soluble protein abundance (concentration: 0.1mM) was 1.08 ± 0.071, the NP40-soluble protein abundance (concentration: 0.5mM) was 1.03 ± 0.058 and the NP40-soluble protein abundance (concentration: 1mM) was 1.05 ± 0.021. For the same target, the NP40-soluble protein abundance (concentration: 2mM) was 1.12 ± 0.052, the NP40-soluble protein abundance (concentration: 4mM) was 1.26 ± 0.068 and the NP40-soluble protein abundance (concentration: 6mM) was 1.35 ± 0.058. For the same target, the NP40-soluble protein abundance (concentration: 8mM) was 1.53 ± 0.093 and the NP40-soluble protein abundance (concentration: 10mM) was 1.63 ± 0.1.
In the case of UniProt Q5SRE5 and related entries, the NP40-soluble protein abundance (concentration: 0.1mM) is reported as 1.17 ± 0.11, the NP40-soluble protein abundance (concentration: 0.5mM) is reported as 1.13 ± 0.051 and the NP40-soluble protein abundance (concentration: 1mM) is reported as 1.03 ± 0.13. The NP40-soluble protein abundance (concentration: 2mM) was 1.01 ± 0.13, the NP40-soluble protein abundance (concentration: 4mM) was 1.13 ± 0.024 and the NP40-soluble protein abundance (concentration: 6mM) was 1.11 ± 0.088. It also gave an NP40-soluble protein abundance (concentration: 8mM) of 1.03 ± 0.029 and an NP40-soluble protein abundance (concentration: 10mM) of 1.08 ± 0.046.
For UniProt Q15054 and related entries, the NP40-soluble protein abundance (concentration: 0.1mM) was 0.962 ± 0.083, the NP40-soluble protein abundance (concentration: 0.5mM) was 0.953 ± 0.073 and the NP40-soluble protein abundance (concentration: 1mM) was 0.95 ± 0.064. For the same target, the NP40-soluble protein abundance (concentration: 2mM) was 0.915 ± 0.089, the NP40-soluble protein abundance (concentration: 4mM) was 0.916 ± 0.092 and the NP40-soluble protein abundance (concentration: 6mM) was 0.929 ± 0.078. For the same target, the NP40-soluble protein abundance (concentration: 8mM) was 0.954 ± 0.056 and the NP40-soluble protein abundance (concentration: 10mM) was 0.928 ± 0.067.
For UniProt Q15910 and related entries, the NP40-soluble protein abundance (concentration: 0.1mM) was 1.07 ± 0.026, the NP40-soluble protein abundance (concentration: 0.5mM) was 1.12 ± 0.026 and the NP40-soluble protein abundance (concentration: 1mM) was 1.12 ± 0.051. It also gave an NP40-soluble protein abundance (concentration: 2mM) of 1.18 ± 0.059, an NP40-soluble protein abundance (concentration: 4mM) of 1.23 ± 0.086 and an NP40-soluble protein abundance (concentration: 6mM) of 1.26 ± 0.08. The NP40-soluble protein abundance (concentration: 8mM) was 1.33 ± 0.14 and the NP40-soluble protein abundance (concentration: 10mM) was 1.3 ± 0.043.
BMS1 (UniProt Q14692) was tested, and the NP40-soluble protein abundance (concentration: 0.1mM) was 0.895 ± 0.022, the NP40-soluble protein abundance (concentration: 0.5mM) was 0.926 ± 0.077 and the NP40-soluble protein abundance (concentration: 1mM) was 1.02 ± 0.018. It also gave an NP40-soluble protein abundance (concentration: 2mM) of 1.01 ± 0.12, an NP40-soluble protein abundance (concentration: 4mM) of 1 ± 0.046 and an NP40-soluble protein abundance (concentration: 6mM) of 1.04 ± 0.089. For the same target, the NP40-soluble protein abundance (concentration: 8mM) was 1.02 ± 0.03 and the NP40-soluble protein abundance (concentration: 10mM) was 1.12 ± 0.11.
With TRMT5 (UniProt Q32P41) the NP40-soluble protein abundance (concentration: 0.1mM) was 1.03 ± 0.043, the NP40-soluble protein abundance (concentration: 0.5mM) was 1.06 ± 0.074 and the NP40-soluble protein abundance (concentration: 1mM) was 0.949 ± 0.059. For the same target, the NP40-soluble protein abundance (concentration: 2mM) was 0.965 ± 0.091, the NP40-soluble protein abundance (concentration: 4mM) was 0.958 ± 0.058 and the NP40-soluble protein abundance (concentration: 6mM) was 0.957 ± 0.1. The NP40-soluble protein abundance (concentration: 8mM) was 0.921 ± 0.038 and the NP40-soluble protein abundance (concentration: 10mM) was 0.883 ± 0.058.
Work on AARS2 (UniProt Q5JTZ9) yielded an NP40-soluble protein abundance (concentration: 0.1mM) of 1.13 ± 0.043, an NP40-soluble protein abundance (concentration: 0.5mM) of 1.02 ± 0.046 and an NP40-soluble protein abundance (concentration: 1mM) of 0.989 ± 0.052. It also gave an NP40-soluble protein abundance (concentration: 2mM) of 0.998 ± 0.059, an NP40-soluble protein abundance (concentration: 4mM) of 0.98 ± 0.06 and an NP40-soluble protein abundance (concentration: 6mM) of 0.948 ± 0.04. The NP40-soluble protein abundance (concentration: 8mM) was 0.925 ± 0.03 and the NP40-soluble protein abundance (concentration: 10mM) was 0.925 ± 0.045.
Target UniProt Q5SQI0 and related entries has an NP40-soluble protein abundance (concentration: 0.1mM) of 1.02 ± 0.085, an NP40-soluble protein abundance (concentration: 0.5mM) of 1.01 ± 0.13 and an NP40-soluble protein abundance (concentration: 1mM) of 0.993 ± 0.13. For the same target, the NP40-soluble protein abundance (concentration: 2mM) was 1.02 ± 0.15, the NP40-soluble protein abundance (concentration: 4mM) was 0.974 ± 0.1 and the NP40-soluble protein abundance (concentration: 6mM) was 1.01 ± 0.074. The NP40-soluble protein abundance (concentration: 8mM) was 0.968 ± 0.048 and the NP40-soluble protein abundance (concentration: 10mM) was 0.978 ± 0.14.
With UniProt Q4G0N4 the NP40-soluble protein abundance (concentration: 0.1mM) was 1.09 ± 0.085, the NP40-soluble protein abundance (concentration: 0.5mM) was 1.08 ± 0.056 and the NP40-soluble protein abundance (concentration: 1mM) was 1 ± 0.079. It also gave an NP40-soluble protein abundance (concentration: 2mM) of 0.996 ± 0.049, an NP40-soluble protein abundance (concentration: 4mM) of 1.01 ± 0.096 and an NP40-soluble protein abundance (concentration: 6mM) of 0.962 ± 0.056. It also gave an NP40-soluble protein abundance (concentration: 8mM) of 0.995 ± 0.038 and an NP40-soluble protein abundance (concentration: 10mM) of 0.94 ± 0.13.
